{"source": "PubChem BioAssay AID652057", "about": "(Broad Institute, 2013)", "note": "Screen size: about 1,400 compounds; about 1,000 (71%) were called active. How the calls were made is not given here. So high a share suggests a set chosen from earlier hits. The entries are a selection whose mix differs from that of the whole data set. Results with a measured potency or affinity are listed apart.", "data": [{"test": "inhibitors of HIV Env-driven cell fusion, dose response, cherry-pick (AID 652057)", "settings": "HeLa-JRFL Env/CEM21 cell fusion, luciferase; at 35 µM (top of the series)", "values": [{"smiles": "O=C(Nc1cccc(OC(=O)N2CCOCC2)c1)N1CCOCC1", "activity change, negative = inhibition": "inactive: -16.4%"}, {"smiles": "CC(C)NS(=O)(=O)c1ccc(OCC(=O)N2CCN(Cc3ccc4c(c3)OCO4)CC2)c(Cl)c1", "activity change, negative = inhibition": "inactive: -14.8%"}, {"smiles": "CCC(=NCCc1c[nH]c2ccccc12)c1c(O)n(C)c(=O)n(C)c1=O", "activity change, negative = inhibition": "inactive: 12.6%"}, {"smiles": "Cn1nc(-c2ccc(OCC(=O)N3CCN(Cc4ccccc4)CC3)cc2)c2ccccc2c1=O", "activity change, negative = inhibition": "inactive: -18.5%"}, {"smiles": "CCC(=NCc1ccc(F)cc1)c1c(O)n(C)c(=O)n(C)c1=O", "activity change, negative = inhibition": "inactive: -35.1%"}]}]}
